# Article PMC7140707
# Results are given in words; binding and its absence hold for the method and conditions named. In cells and extracts the contact can be indirect. A yes stands for co-enrichment or nearness to the bait. Other partners may have been found. Where a sequence is shown, tags or fusion partners need not be part of it.
# T1: His6-Gis1 (yeast (S. cerevisiae)) (UniProt Q03833)
# T1 sequence: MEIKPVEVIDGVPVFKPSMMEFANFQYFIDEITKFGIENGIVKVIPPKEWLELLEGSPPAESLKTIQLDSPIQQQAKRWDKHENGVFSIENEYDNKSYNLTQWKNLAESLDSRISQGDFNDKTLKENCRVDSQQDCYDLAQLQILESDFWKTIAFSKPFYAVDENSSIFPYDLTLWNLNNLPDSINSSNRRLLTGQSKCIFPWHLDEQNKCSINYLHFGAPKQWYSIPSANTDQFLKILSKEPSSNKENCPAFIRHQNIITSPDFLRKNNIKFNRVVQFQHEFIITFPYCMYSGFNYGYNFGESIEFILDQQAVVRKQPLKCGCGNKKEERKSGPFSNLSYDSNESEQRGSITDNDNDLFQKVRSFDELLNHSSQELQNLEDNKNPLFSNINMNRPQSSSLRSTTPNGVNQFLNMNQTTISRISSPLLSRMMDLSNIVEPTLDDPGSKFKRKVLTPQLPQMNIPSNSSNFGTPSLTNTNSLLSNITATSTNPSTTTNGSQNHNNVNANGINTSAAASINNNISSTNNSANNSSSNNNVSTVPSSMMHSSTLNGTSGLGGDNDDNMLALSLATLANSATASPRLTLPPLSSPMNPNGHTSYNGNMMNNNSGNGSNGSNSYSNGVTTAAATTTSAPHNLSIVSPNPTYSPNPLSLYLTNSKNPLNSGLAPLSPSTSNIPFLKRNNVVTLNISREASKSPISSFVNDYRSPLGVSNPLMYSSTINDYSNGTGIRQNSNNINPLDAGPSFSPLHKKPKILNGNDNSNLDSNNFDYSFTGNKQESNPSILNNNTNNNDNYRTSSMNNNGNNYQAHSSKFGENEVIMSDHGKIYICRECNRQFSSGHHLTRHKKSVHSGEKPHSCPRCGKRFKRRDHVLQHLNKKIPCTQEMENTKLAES
# B1: SNF1 (protein, UniProt P06782 1-633)
# chain: MSSNNNTNTAPANANSSHHHHHHHHHHHHHGHGGSNSTLNNPKSSLADGAHIGNYQIVKTLGEGSFGKVKLAYHTTTGQKVALKIINKKVLAKSDMQGRIEREISYLRLLRHPHIIKLYDVIKSKDEIIMVIEYAGNELFDYIVQRDKMSEQEARRFFQQIISAVEYCHRHKIVHRDLKPENLLLDEHLNVKIADFGLSNIMTDGNFLKTSCGSPNYAAPEVISGKLYAGPEVDVWSCGVILYVMLCRRLPFDDESIPVLFKNISNGVYTLPKFLSPGAAGLIKRMLIVNPLNRISIHEIMQDDWFKVDLPEYLLPPDLKPHPEEENENNDSKKDGSSPDNDEIDDNLVNILSSTMGYEKDEIYESLESSEDTPAFNEIRDAYMLIKENKSLIKDMKANKSVSDELDTFLSQSPPTFQQQSKSHQKSQVDHETAKQHARRMASAITQQRTYHQSPFMDQYKEEDSTVSILPTSLPQIHRANMLAQGSPAASKISPLVTKKSKTRWHFGIRSRSYPLDVMGEIYIALKNLGAEWAKPSEEDLWTIKLRWKYDIGNKTNTNEKIPDLMKMVIQLFQIETNNYLVDFKFDGWESSYGDDTTVSNISEDEMSTFSAYPFLHLTTKLIMELAVNSQSN
# B2: SOF1 (protein, UniProt P33750 1-489)
# chain: MKIKTIKRSADDYVPVKSTQESQMPRNLNPELHPFERAREYTKALNATKLERMFAKPFVGQLGYGHRDGVYAIAKNYGSLNKLATGSADGVIKYWNMSTREEFVSFKAHYGLVTGLCVTQPRFHDKKPDLKSQNFMLSCSDDKTVKLWSINVDDYSNKNSSDNDSVTNEEGLIRTFDGESAFQGIDSHRENSTFATGGAKIHLWDVNRLKPVSDLSWGADNITSLKFNQNETDILASTGSDNSIVLYDLRTNSPTQKIVQTMRTNAICWNPMEAFNFVTANEDHNAYYYDMRNLSRSLNVFKDHVSAVMDVDFSPTGDEIVTGSYDKSIRIYKTNHGHSREIYHTKRMQHVFQVKYSMDSKYIISGSDDGNVRLWRSKAWERSNVKTTREKNKLEYDEKLKERFRHMPEIKRISRHRHVPQVIKKAQEIKNIELSSIKRREANERRTRKDMPYISERKKQIVGTVHKYEDSGRDRKRRKEDDKRDTQEK
# B3: SRO9 (protein, UniProt P25567 1-434)
# chain: MSAETAAANTATAPVPEVQEQESSKSKQVNLTPAPLPTSSPWKLAPTEIPVSTISIEDLDATRKKKNRTPTPKSSTATKWVPIKASITVSGTKRSGSKNGASNGNSNKSKNNKTAASSTSSSNANRKKKHHQHNAKKQQQMKKDGFESAVGEEDSKDATSQENGQSTQQQQPPHHRNHHHSHHHNSNGPQRRKFHNSNNAGMPQNQGFPPQFKPYQGRNARNNNNNRSKYHNHFHHNQQHPQQPMVKLQQQFYPVQPVLMAINNIARQIEYYFSEENLTVDNYLRSKLSKDGFAPLSLISKFYRVVNMSFGGDTNLILAALREIVANEAATVNVAEGTLAAKEGDNVTGEAKEPSPLDKYFVRSKSWSNWLPETFETEINIEKELVGDALDQFMISLPPVPQQEEESSTELASQEQETKEDSAPVAAGESESSL
# B4: ESS1 (protein, UniProt P22696 1-170)
# chain: MPSDVASRTGLPTPWTVRYSKSKKREYFFNPETKHSQWEEPEGTNKDQLHKHLRDHPVRVRCLHILIKHKDSRRPASHRSENITISKQDATDELKTLITRLDDDSKTNSFEALAKERSDCSSYKRGGDLGWFGRGEMQPSFEDAAFQLKVGEVSDIVESGSGVHVIKRVG
# B5: UGP1 (protein, UniProt P32861 1-499)
# chain: MSTKKHTKTHSTYAFESNTNSVAASQMRNALNKLADSSKLDDAARAKFENELDSFFTLFRRYLVEKSSRTTLEWDKIKSPNPDEVVKYEIISQQPENVSNLSKLAVLKLNGGLGTSMGCVGPKSVIEVREGNTFLDLSVRQIEYLNRQYDSDVPLLLMNSFNTDKDTEHLIKKYSANRIRIRSFNQSRFPRVYKDSLLPVPTEYDSPLDAWYPPGHGDLFESLHVSGELDALIAQGREILFVSNGDNLGATVDLKILNHMIETGAEYIMELTDKTRADVKGGTLISYDGQVRLLEVAQVPKEHIDEFKNIRKFTNFNTNNLWINLKAVKRLIESSNLEMEIIPNQKTITRDGHEINVLQLETACGAAIRHFDGAHGVVVPRSRFLPVKTCSDLLLVKSDLFRLEHGSLKLDPSRFGPNPLIKLGSHFKKVSGFNARIPHIPKIVELDHLTITGNVFLGKDVTLRGTVIIVCSDGHKIDIPNGSILENVVVTGNLQILEH
# B6: VTS1 (protein, UniProt Q08831 1-523)
# chain: MKHPYEEFPTGSKSPYNMSRGAHPGAVLLSPQSSAINKNNPGSNSGNNQGNSSVTANVLSPQSHSMSLNDMLDQQSFMLDTAGTRAQPLQQQQQQQQQQQQASLPSLNIQTVSSTAAGSAIVSPMMQSPKALQSTLSSTSMYLDSFQRSPNNILGIPSQSGSIPLPQSRQSQQQSQSQKNDPNMGTNFSQDINQLCSWISMLNSSQQNTVMDNILSILNDDVLKYTKLKIETLTNTPFISPPLPAIASPIPNRDDTQILNIDSVFSSSPITNDPENTDNLLYQNWSPQPHSIPISQPIYDNITDASQRSKSAEPHVNSSPNLIPVQKQFNNGNSTKYKKLPSENPNYLSHSLSSSHSFFQPKKRSNMGNEYNSHHHHSLHHPLHNTTSYFSNTSRPSGTDLNKSNQNVFNNTITHPNAGPTSATSTSTSSNGNTPLSSNSSMNPKSLTDPKLLKNIPMWLKSLRLHKYSDALSGTPWIELIYLDDETLEKKGVLALGARRKLLKAFGIVIDYKERDLIDRSAY
# B7: WHI2 (protein, UniProt P12611 1-486)
# chain: MDDIITQVSPDNAESAPILQEQQQQQNSQYEGNEEDYGDSLIHLNIQENHYFITRDQLMSLPESLLLCLFPSGVFLDRCGQVITNLTRDDEVYIVNFPPDCFEYIMEIYTKAHDDLYNHPVEKFFDRPSSSFVSNAKGFFGLSSNNSISSNNEQDILHQKPAIIVLREDLDYYCVPQEEFQFDSTNEENNEDLLRHFMAQVKMAAGSYLTSKTSIFQGLYSSNRLKQQQQQQKIEKGSNSSSNTKSTSKKLGPAEQHLMDMLCSSGFTKETCWGNRTQETGKTVISSLSLCRLANETTEGFRQKFNEAKAKWEAEHKPSQDNFITPMQSNISINSLSASKSNSTISTARNLTSGSTAPATARDKRKSRLSKLADNVRSHSSSRHSSQTRSKPPELPKLYDLVPKPNINAKLLLFWRKPARKCWWGEEDIELEVEVFGSWKDESKKIIELILPTNVDPEAELHKIIVPVRLHIRRVWTLELSVIGVQ
# B8: YGR237C (protein, UniProt P50089 1-785)
# chain: MSSAKTFTKHISFDDLAPSLIDDQATIIKNDSHHVGLNNHFLHIPPQFNPVYKNTLTGSHGSNDLATDESLDSPEDEEASSPLQLGTPTSTTSGVPHFYTQVFSPAAHDPSKSYLRSPSVERSRSESPMFRSRRRTSVRLPPPPKVSVLKKSRKAADEQGPIDDIDIGDLDFELERKMTKMTERNTQKNSGSRKGYTQAAFANLNEVEDRIETKSMVDLSESENMESSKKRSKSFAGMTDEELAKLEEFYISKGRSNKTKIDQFDFGEQVPVYLNTTESKTDSSNVTDPLAAIYPSRPTIVHNAISMTIDHPDYENYISNTKEKLNCKDKDDDVDLRVVSCYISGRRYTWSSVDWYVENLTRNGDHLVIITTIPEFEAKIDTLAYKEKRRHRLERMTSNTSESMTTASHSLIGPDLSSPLSTGIRIEAIHNEAKQTCSDILNYYARRLATKIVRISIEMVKENSTRSAIISATSLYRPSLQVISTVSANIQIKFRNGKVKLPFFLMKHFAMPAFVVPFEFIKPELLIKPRVDKDEQDNSDDLKTEVRKKERLQWLSALIRRTLENPFTKHKVVDSDDEESDSDESVTSVNEYFPISPEKKEEMEFFDKMGYVRPKPSRQVLLDDNTLMKYDSSGRKLTPIESRNSRRSSKRSSRIQFNNNGIYKVKSMVDDIYNHETASTPHIKTALKWDNEDPKMKFTSHPMRKTKSAGLSPRTSSTSSSSGQRKAHHHHHHHNHVSRTKTTESTKSGNSKKDSSSSSTNDHQFKRSEKKKKSKFGSIFKKVFG
# Biological target: T1, His6-Gis1 (yeast (S. cerevisiae))
# Experiment: affinity purification with mass spectrometry; His6-Gis1 pre-bound to a Ni Sepharose 6 Fast Flow column; crude yeast extract (Δgis1 cells grown in air or under hypoxia, Δgis1Δhem1 cells at intermediate or high ALA) loaded, 4 °C, 2 h; eluted complexes separated by SDS-PAGE, bands excised, MS; only the target purified
row,Binder,binding
1,B1,binds
2,B2,binds
3,B3,binds
4,B4,binds
5,B5,binds
6,B6,binds
7,B7,binds
8,B8,binds
